Results from paper PMC6642080.
Results are given in words; binding and its absence hold for the method and conditions named. Binding seen in cells or lysates may run through a third protein. Some entries that bind do so weakly or less than the wild type. Tags and fused reporters may be left off the sequences shown.

T1: Single immunoglobin interleukin-1 (IL-1)-related receptor (Sigirr), endogenous in MLE12 cells (mouse (endogenous in MLE12)) (UniProt Q9JLZ8)
T1 sequence: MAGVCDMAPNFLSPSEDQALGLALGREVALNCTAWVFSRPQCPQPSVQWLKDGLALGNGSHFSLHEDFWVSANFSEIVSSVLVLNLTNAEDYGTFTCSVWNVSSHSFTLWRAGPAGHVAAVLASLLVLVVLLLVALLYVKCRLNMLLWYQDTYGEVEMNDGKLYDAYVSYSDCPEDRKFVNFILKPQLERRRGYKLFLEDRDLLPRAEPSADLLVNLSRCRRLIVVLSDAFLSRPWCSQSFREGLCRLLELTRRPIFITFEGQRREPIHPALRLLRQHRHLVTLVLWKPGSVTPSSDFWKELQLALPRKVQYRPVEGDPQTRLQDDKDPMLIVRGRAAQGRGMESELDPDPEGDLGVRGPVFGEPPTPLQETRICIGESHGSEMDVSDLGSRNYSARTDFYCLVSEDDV

T2: Sigirr (1-374)-V5 (human) (UniProt Q6IA17)
T2 sequence: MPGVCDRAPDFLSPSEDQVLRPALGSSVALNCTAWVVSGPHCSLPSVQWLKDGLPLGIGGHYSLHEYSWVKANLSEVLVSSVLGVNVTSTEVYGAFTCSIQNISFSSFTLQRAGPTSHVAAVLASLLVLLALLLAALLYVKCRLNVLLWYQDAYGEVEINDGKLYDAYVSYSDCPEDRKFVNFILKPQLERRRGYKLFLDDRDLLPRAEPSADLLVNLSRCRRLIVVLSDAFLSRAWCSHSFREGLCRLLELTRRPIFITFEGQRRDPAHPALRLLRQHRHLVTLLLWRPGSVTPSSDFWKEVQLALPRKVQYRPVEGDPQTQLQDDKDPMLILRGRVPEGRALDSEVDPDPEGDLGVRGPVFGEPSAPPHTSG

T3: V5-tagged full-length Sigirr (1-410 aa) (human), Q6IA17
T3 chain: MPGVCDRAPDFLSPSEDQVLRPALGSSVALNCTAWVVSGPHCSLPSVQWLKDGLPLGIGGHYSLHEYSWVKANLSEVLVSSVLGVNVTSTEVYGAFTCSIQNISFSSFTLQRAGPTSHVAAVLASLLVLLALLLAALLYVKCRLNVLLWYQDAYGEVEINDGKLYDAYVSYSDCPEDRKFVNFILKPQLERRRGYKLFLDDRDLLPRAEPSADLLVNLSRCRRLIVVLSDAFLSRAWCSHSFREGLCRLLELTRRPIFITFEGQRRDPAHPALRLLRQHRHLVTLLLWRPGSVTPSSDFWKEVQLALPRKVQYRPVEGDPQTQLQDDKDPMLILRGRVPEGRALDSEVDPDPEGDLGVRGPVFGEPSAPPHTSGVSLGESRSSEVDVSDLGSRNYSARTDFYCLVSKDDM


What was measured:
[1] = biological target: T1, Single immunoglobin interleukin-1 (IL-1)-related receptor (Sigirr), endogenous in MLE12 cells (mouse (endogenous in MLE12)); experiment: co-IP; MLE12 cell lysate (1% Triton X-100, 150 mM NaCl, Tris pH 7.4); IP with anti-Sigirr antibody and protein A/G agarose overnight at 4 °C; blot for V5 (overexpressed USP13-V5) or USP13 (endogenous); untreated cells
[2] = biological target: T2, Sigirr (1-374)-V5 (human); experiment: co-IP; USP13-HA and V5-tagged Sigirr or its C-terminal deletion mutants made with a TnT in vitro translation system, incubated together; IP with anti-V5 beads; blot for HA
[3] = biological target: T3, V5-tagged full-length Sigirr (1-410 aa) …; experiment: as above; settings: remark: other sources report otherwise

binding [1]	Binder	also measured
binds	USP13, endogenous in MLE12 cells (enzyme, UniProt Q5BKP2 1-858) MQRRGALFSVPGGGGKMAAGDLGELLVPHMPTIRVPRSGDRVYKNECAFSYDSPNSEGGLYVCMNTFLAFGREHVERHFRKTGQSVYMHLKRHMREKVRGASGGALPKRRNSKIFLDLDMDDDLNSDDYEYEDEAKLVIFPDHYEIALPNIEELPALVTIACDAVLSSKSPYRKQDPDTWENEVPVSKYANNLVQLDNGVRIPPSGWKCARCDLRENLWLNLTDGSVLCGKWFFDSSGGNGHALEHYRDMGYPLAVKLGTITPDGADVYSFQEEGPVSDPHLAKHLAHFGIDMLHTQGTENGLRDNDIKPRVSEWEVIQESGTKLKPMYGPGYTGLKNLGNSCYLSSVMQAIFSIPEFQRAYVGNLPRIFDYSPLDPTQDFNTQMTKLGHGLLSGQYSKPPVKSELIEQVMKEEHKPQQNGISPRMFKAFVSKSHPEFSSNRQQDAQEFFLHLVNLVERNRIGSENPSDVFRFLVEERIQCCQTRKVRYTERVDYLMQLPVAMEAATNKDELITYELMRREAEANRRPLPELVRAKIPFSACLQAFAEPDNVDDFWSSALQAKSAGVKTSRFASFPEYLVVQIKKFTFGLDWVPRKFDVSIDMPDLLDISHLRARGLQPGEEELPDISPPIVIPDDSKDRLMNQLIDPSDIDESSVMQLAEMGFPLEACRKAVYFTGNTGAEVAFNWIIVHMEEPDFAEPLAIPGYGGAGASVFGATGLDNQPPEEIVAIITSMGFQRNQAVQALQATNHNLERALDWIFSHPEFEEDSDFVIEMENNANANIVSEAKPEGPRVKDGSGMYELFAFISHMGTSTMSGHYVCHIKKEGRWVIYNDHKVCASERPPKDLGYMYFYRRIPS	
binds	V5-tagged USP13 (USP13-V5) (enzyme, UniProt Q92995 1-863) MQRRGALFGMPGGSGGRKMAAGDIGELLVPHMPTIRVPRSGDRVYKNECAFSYDSPNSEGGLYVCMNTFLAFGREHVERHFRKTGQSVYMHLKRHVREKVRGASGGALPKRRNSKIFLDLDTDDDLNSDDYEYEDEAKLVIFPDHYEIALPNIEELPALVTIACDAVLSSKSPYRKQDPDTWENELPVSKYANNLTQLDNGVRIPPSGWKCARCDLRENLWLNLTDGSVLCGKWFFDSSGGNGHALEHYRDMGYPLAVKLGTITPDGADVYSFQEEEPVLDPHLAKHLAHFGIDMLHMHGTENGLQDNDIKLRVSEWEVIQESGTKLKPMYGPGYTGLKNLGNSCYLSSVMQAIFSIPEFQRAYVGNLPRIFDYSPLDPTQDFNTQMTKLGHGLLSGQYSKPPVKSELIEQVMKEEHKPQQNGISPRMFKAFVSKSHPEFSSNRQQDAQEFFLHLVNLVERNRIGSENPSDVFRFLVEERIQCCQTRKVRYTERVDYLMQLPVAMEAATNKDELIAYELTRREAEANRRPLPELVRAKIPFSACLQAFSEPENVDDFWSSALQAKSAGVKTSRFASFPEYLVVQIKKFTFGLDWVPKKFDVSIDMPDLLDINHLRARGLQPGEEELPDISPPIVIPDDSKDRLMNQLIDPSDIDESSVMQLAEMGFPLEACRKAVYFTGNMGAEVAFNWIIVHMEEPDFAEPLTMPGYGGAASAGASVFGASGLDNQPPEEIVAIITSMGFQRNQAIQALRATNNNLERALDWIFSHPEFEEDSDFVIEMENNANANIISEAKPEGPRVKDGSGTYELFAFISHMGTSTMSGHYICHIKKEGRWVIYNDHKVCASERPPKDLGYMYFYRRIPS	
	USP13-HA (enzyme, UniProt Q92995 1-863) MQRRGALFGMPGGSGGRKMAAGDIGELLVPHMPTIRVPRSGDRVYKNECAFSYDSPNSEGGLYVCMNTFLAFGREHVERHFRKTGQSVYMHLKRHVREKVRGASGGALPKRRNSKIFLDLDTDDDLNSDDYEYEDEAKLVIFPDHYEIALPNIEELPALVTIACDAVLSSKSPYRKQDPDTWENELPVSKYANNLTQLDNGVRIPPSGWKCARCDLRENLWLNLTDGSVLCGKWFFDSSGGNGHALEHYRDMGYPLAVKLGTITPDGADVYSFQEEEPVLDPHLAKHLAHFGIDMLHMHGTENGLQDNDIKLRVSEWEVIQESGTKLKPMYGPGYTGLKNLGNSCYLSSVMQAIFSIPEFQRAYVGNLPRIFDYSPLDPTQDFNTQMTKLGHGLLSGQYSKPPVKSELIEQVMKEEHKPQQNGISPRMFKAFVSKSHPEFSSNRQQDAQEFFLHLVNLVERNRIGSENPSDVFRFLVEERIQCCQTRKVRYTERVDYLMQLPVAMEAATNKDELIAYELTRREAEANRRPLPELVRAKIPFSACLQAFSEPENVDDFWSSALQAKSAGVKTSRFASFPEYLVVQIKKFTFGLDWVPKKFDVSIDMPDLLDINHLRARGLQPGEEELPDISPPIVIPDDSKDRLMNQLIDPSDIDESSVMQLAEMGFPLEACRKAVYFTGNMGAEVAFNWIIVHMEEPDFAEPLTMPGYGGAASAGASVFGASGLDNQPPEEIVAIITSMGFQRNQAIQALRATNNNLERALDWIFSHPEFEEDSDFVIEMENNANANIISEAKPEGPRVKDGSGTYELFAFISHMGTSTMSGHYICHIKKEGRWVIYNDHKVCASERPPKDLGYMYFYRRIPS	binding [2]: binds
	USP13-HA, Q92995 1-863 (enzyme) MQRRGALFGMPGGSGGRKMAAGDIGELLVPHMPTIRVPRSGDRVYKNECAFSYDSPNSEGGLYVCMNTFLAFGREHVERHFRKTGQSVYMHLKRHVREKVRGASGGALPKRRNSKIFLDLDTDDDLNSDDYEYEDEAKLVIFPDHYEIALPNIEELPALVTIACDAVLSSKSPYRKQDPDTWENELPVSKYANNLTQLDNGVRIPPSGWKCARCDLRENLWLNLTDGSVLCGKWFFDSSGGNGHALEHYRDMGYPLAVKLGTITPDGADVYSFQEEEPVLDPHLAKHLAHFGIDMLHMHGTENGLQDNDIKLRVSEWEVIQESGTKLKPMYGPGYTGLKNLGNSCYLSSVMQAIFSIPEFQRAYVGNLPRIFDYSPLDPTQDFNTQMTKLGHGLLSGQYSKPPVKSELIEQVMKEEHKPQQNGISPRMFKAFVSKSHPEFSSNRQQDAQEFFLHLVNLVERNRIGSENPSDVFRFLVEERIQCCQTRKVRYTERVDYLMQLPVAMEAATNKDELIAYELTRREAEANRRPLPELVRAKIPFSACLQAFSEPENVDDFWSSALQAKSAGVKTSRFASFPEYLVVQIKKFTFGLDWVPKKFDVSIDMPDLLDINHLRARGLQPGEEELPDISPPIVIPDDSKDRLMNQLIDPSDIDESSVMQLAEMGFPLEACRKAVYFTGNMGAEVAFNWIIVHMEEPDFAEPLTMPGYGGAASAGASVFGASGLDNQPPEEIVAIITSMGFQRNQAIQALRATNNNLERALDWIFSHPEFEEDSDFVIEMENNANANIISEAKPEGPRVKDGSGTYELFAFISHMGTSTMSGHYICHIKKEGRWVIYNDHKVCASERPPKDLGYMYFYRRIPS	binding [3]: binds
